Reference: US20230416352A1
Results are given in words; binding and its absence hold for the method and conditions named. A result given as binding can be weak or reduced; the word gives no strength.

The chains behind the UniProt entries cited, without tags or fusion partners. Where a name states a change or a piece, a line headed by the entry shows the natural chain unless it says otherwise.
UniProt P29279: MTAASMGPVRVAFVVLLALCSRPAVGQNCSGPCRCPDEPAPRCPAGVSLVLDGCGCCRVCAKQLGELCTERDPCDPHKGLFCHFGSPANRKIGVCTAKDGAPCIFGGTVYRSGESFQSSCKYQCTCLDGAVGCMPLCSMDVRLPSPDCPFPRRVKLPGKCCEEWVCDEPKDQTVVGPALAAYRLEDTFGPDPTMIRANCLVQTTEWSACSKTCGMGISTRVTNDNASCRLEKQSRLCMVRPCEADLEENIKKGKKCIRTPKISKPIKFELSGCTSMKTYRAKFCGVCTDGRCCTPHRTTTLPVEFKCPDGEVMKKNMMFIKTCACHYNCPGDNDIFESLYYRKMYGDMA

B1: Ch147 (antibody, human IgG1, kappa, V domains shown)
VH: EVQLVESGGGLVQPEGSLKLSCAASGFSFNTYAMNWVRQAPGKGLEWVARIRTKSNNYATYYADSVKDRFTISRDDSESMLYLQMNNLKTEDTAMYYCVETGFAYWDQGTLVTVSA
VL: QIVLTQSPAIMSASPGEKVTITCSASSSVSYMHWFQQKPGTSPKLWIYSTSNLASGVPARFSGSGSGTSYSLTISRMEAEDAATYYCQQRSSYPLTFGAGTKLELKR
B2: Hu147-11wk (antibody, human IgG1, kappa, V domains shown)
VH: EVQLVESGGGLVQPGGSLRLSCAASGFTFSTYAMNWVRQAPGKGLEWVGRIRTKSNNYATYYADSVKDRFTISRDDSKNSLYLQMNSLKTEDTAVYYCVETGFAYWDQGTLVTVSS
VL: EIVLTQSPATLSLSPGERATLSCSASSSVSYMHWFQQKPGQSPRLLIYSTSNLASGIPARFSGSGSGTDYTLTISSLEPEDFAVYYCQQRSSYPLTFGQGTKLEIKR
B3: Hu147-12wk (antibody, human IgG1, kappa, V domains shown)
VH: EVQLVESGGGLVQPGGSLRLSCAASGFTFSTYAMNWVRQAPGKGLEWVGRIRTKSNNYATYYADSVKDRFTISRDDSKNSLYLQMNSLKTEDTAVYYCVETGFAYWDQGTLVTVSS
VL: EIVLTQSPATLSLSPGERATLSCSASSSVSYMHWFQQKPGQSPKLLIYSTSNLASGIPARFSGSGSGTDYTLTISSLEPEDFAVYYCQQRSSYPLTFGQGTKLEIKR
B4: Hu147-13wk (antibody, human IgG1, kappa, V domains shown)
VH: EVQLVESGGGLVQPGGSLRLSCAASGFTFSTYAMNWVRQAPGKGLEWVGRIRTKSNNYATYYADSVKDRFTISRDDSKNSLYLQMNSLKTEDTAVYYCVETGFAYWDQGTLVTVSS
VL: EIVLTQSPATLSLSPGERATLSCSASSSVSYMHWFQQKPGQSPKLWIYSTSNLASGVPARFSGSGSGTDYTLTISSLEPEDFAVYYCQQRSSYPLTFGQGTKLEIKR
B5: Hu147-14wk (antibody, human IgG1, kappa, V domains shown)
VH: EVQLVESGGGLVQPGGSLRLSCAASGFTFSTYAMNWVRQAPGKGLEWVGRIRTKSNNYATYYADSVKDRFTISRDDSKNSLYLQMNSLKTEDTAVYYCVETGFAYWDQGTLVTVSS
VL: DIQMTQSPSSLSASVGDRVTITCSASSSVSYMHWFQQKPGKSPKLLIYSTSNLASGVPSRFSGSGSGTDYTLTISSLQPEDFATYYCQQRSSYPLTFGQGTKLEIKR
B6: Hu147-21wk (antibody, human IgG1, kappa, V domains shown)
VH: EVQLVESGGGLVQPGGSLRLSCAASGFTFNTYAMNWVRQAPGKGLEWVARIRTKSNNYATYYADSVKDRFTISRDDSKNSLYLQMNSLKTEDTAVYYCVETGFAYWDQGTLVTVSS
VL: EIVLTQSPATLSLSPGERATLSCSASSSVSYMHWFQQKPGQSPRLLIYSTSNLASGIPARFSGSGSGTDYTLTISSLEPEDFAVYYCQQRSSYPLTFGQGTKLEIKR
B7: Hu147-22wk (antibody, human IgG1, kappa, V domains shown)
VH: EVQLVESGGGLVQPGGSLRLSCAASGFTFNTYAMNWVRQAPGKGLEWVARIRTKSNNYATYYADSVKDRFTISRDDSKNSLYLQMNSLKTEDTAVYYCVETGFAYWDQGTLVTVSS
VL: EIVLTQSPATLSLSPGERATLSCSASSSVSYMHWFQQKPGQSPKLLIYSTSNLASGIPARFSGSGSGTDYTLTISSLEPEDFAVYYCQQRSSYPLTFGQGTKLEIKR
B8: Hu147-23wk (antibody, human IgG1, kappa, V domains shown)
VH: EVQLVESGGGLVQPGGSLRLSCAASGFTFNTYAMNWVRQAPGKGLEWVARIRTKSNNYATYYADSVKDRFTISRDDSKNSLYLQMNSLKTEDTAVYYCVETGFAYWDQGTLVTVSS
VL: EIVLTQSPATLSLSPGERATLSCSASSSVSYMHWFQQKPGQSPKLWIYSTSNLASGVPARFSGSGSGTDYTLTISSLEPEDFAVYYCQQRSSYPLTFGQGTKLEIKR
B9: Hu147-31wk (antibody, human IgG1, kappa, V domains shown)
VH: EVQLVESGGGLVQPGGSLRLSCAASGFSFNTYAMNWVRQAPGKGLEWVARIRTKSNNYATYYADSVKDRFTISRDDSESSLYLQMNSLKTEDTAVYYCVETGFAYWDQGTLVTVSS
VL: EIVLTQSPATLSLSPGERATLSCSASSSVSYMHWFQQKPGQSPRLLIYSTSNLASGIPARFSGSGSGTDYTLTISSLEPEDFAVYYCQQRSSYPLTFGQGTKLEIKR
B10: Hu147-32wk (antibody, human IgG1, kappa, V domains shown)
VH: EVQLVESGGGLVQPGGSLRLSCAASGFSFNTYAMNWVRQAPGKGLEWVARIRTKSNNYATYYADSVKDRFTISRDDSESSLYLQMNSLKTEDTAVYYCVETGFAYWDQGTLVTVSS
VL: EIVLTQSPATLSLSPGERATLSCSASSSVSYMHWFQQKPGQSPKLLIYSTSNLASGIPARFSGSGSGTDYTLTISSLEPEDFAVYYCQQRSSYPLTFGQGTKLEIKR
B11: Hu147-33wk (antibody, human IgG1, kappa, V domains shown)
VH: EVQLVESGGGLVQPGGSLRLSCAASGFSFNTYAMNWVRQAPGKGLEWVARIRTKSNNYATYYADSVKDRFTISRDDSESSLYLQMNSLKTEDTAVYYCVETGFAYWDQGTLVTVSS
VL: EIVLTQSPATLSLSPGERATLSCSASSSVSYMHWFQQKPGQSPKLWIYSTSNLASGVPARFSGSGSGTDYTLTISSLEPEDFAVYYCQQRSSYPLTFGQGTKLEIKR
B12: Hu147-34wk (antibody, human IgG1, kappa, V domains shown)
VH: EVQLVESGGGLVQPGGSLRLSCAASGFSFNTYAMNWVRQAPGKGLEWVARIRTKSNNYATYYADSVKDRFTISRDDSESSLYLQMNSLKTEDTAVYYCVETGFAYWDQGTLVTVSS
VL: DIQMTQSPSSLSASVGDRVTITCSASSSVSYMHWFQQKPGKSPKLLIYSTSNLASGVPSRFSGSGSGTDYTLTISSLQPEDFATYYCQQRSSYPLTFGQGTKLEIKR
B13: Hu164-57wl (antibody, human IgG1, lambda, V domains shown)
VH: EVTLKESGPVLVKPTETLTLTCTVSGFSLSTFGVHWIRQPPGKALEWLAVIWRRGGTDYNAAFMSRLTISKDTSKSQVVLTMTNMDPVDTATYYCARDGGFDYWGQGTTVTVSS
VL: ETVVTQEPSLTVSPGGTVTLTCRSSIGAVTTSNYANWVQQKPGQAFRGLIGGTSNRAPWTPARFSGSLLGGKAALTLSGVQPEDEAEYYCALWYSTHYVFGGGTKLTVLG
B14: Hu164-77wl (antibody, human IgG1, lambda, V domains shown)
VH: EVQLQESGPGLVKPSQTLSLTCTVSGFSISTFGVHWIRQHPGKGLEWIGVIWRRGGTDYNAAFMSRVTISKDTSKNQVSLKLSSVTAADTAVYYCARDGGFDYWGQGTTVTVSS
VL: ETVVTQEPSLTVSPGGTVTLTCRSSIGAVTTSNYANWVQQKPGQAFRGLIGGTSNRAPWTPARFSGSLLGGKAALTLSGVQPEDEAEYYCALWYSTHYVFGGGTKLTVLG
B15: Hu164-87wl (antibody, human IgG1, lambda, V domains shown)
VH: EVQLQESGPGLVKPSQTLSLTCTVSGFSISTFGVHWIRQHPGKGLEWLGVIWRRGGTDYNAAFMSRLTISKDTSKNQVSFKLSSVTAADTAVYYCARDGGFDYWGQGTTVTVSS
VL: ETVVTQEPSLTVSPGGTVTLTCRSSIGAVTTSNYANWVQQKPGQAFRGLIGGTSNRAPWTPARFSGSLLGGKAALTLSGVQPEDEAEYYCALWYSTHYVFGGGTKLTVLG
B16: Hu164-68wl (antibody, human IgG1, lambda, V domains shown)
VH: EVTLKESGPVLVKPTETLTLTCTVSGFSLSTFGVHWIRQPPGKGLEWLGVIWRRGGTDYNAAFMSRLTISKDTSKSQVVFTMTNMDPVDTATYYCARDGGFDYWGQGTTVTVSS
VL: ETVVTQEPSFSVSPGGTVTLTCRSSIGAVTTSNYANWVQQTPGQAFRGLIGGTSNRAPGVPDRFSGSILGNKAALTITGAQADDESDYYCALWYSTHYVFGGGTKLTVLG
B17: Hu164-69wl (antibody, human IgG1, lambda, V domains shown)
VH: EVTLKESGPVLVKPTETLTLTCTVSGFSLSTFGVHWIRQPPGKGLEWLGVIWRRGGTDYNAAFMSRLTISKDTSKSQVVFTMTNMDPVDTATYYCARDGGFDYWGQGTTVTVSS
VL: ESVVTQPPSVSGAPGQRVTISCRSSIGAVTTSNYANWVQQLPGTAFKGLIGGTSNRAPGVPDRFSGSKSGTSASLAITGLQAEDEADYYCALWYSTHYVFGGGTKLTVLG
B18: Hu95-21wk (antibody, human IgG1, kappa, V domains shown)
VH: EVQLVQSGAEVKKPGASVKVSCKASGFTFTNYDIHWVRQAPGQRLEWIGLVYPYNGGTAYNQKFKDRATLTFDTSASTAYMELSSLRSEDTAVYYCARWGLIPGTTSYFDVWGQGTTVTVSS
VL: EIVLTQSPATLSLSPGERATLSCRASSSVSYIHWYQQKPGQAPRPWIYATSNLASGIPARFSGSGSGTDYTLTISRLEPEDFAVYYCQQWNSNPWTFGGGTKVEIKR
B19: Hu95-31wk (antibody, human IgG1, kappa, V domains shown)
VH: EVQLVQSGAEVKKPGASVKVSCKASGFTFTNYDIHWVKQAPGQRLEWMGLVYPYNGGTAYNQKFKDKVTLTFDTSASTAYMELSSLRSEDTAVYYCARWGLIPGTTSYFDVWGQGTTVTVSS
VL: EIVLTQSPATLSLSPGERATLSCRASSSVSYIHWYQQKPGQAPRPWIYATSNLASGIPARFSGSGSGTDYTLTISRLEPEDFAVYYCQQWNSNPWTFGGGTKVEIKR
B20: Hu95-41wk (antibody, human IgG1, kappa, V domains shown)
VH: EVQLVQSGAEVKKPGASVKVSCKASGFTFTNYDIHWVKQAPGQRLEWIGLVYPYNGGTAYNQKFKDKATLTFDTSASTAYMELSSLRSEDTAVYYCARWGLIPGTTSYFDVWGQGTTVTVSS
VL: EIVLTQSPATLSLSPGERATLSCRASSSVSYIHWYQQKPGQAPRPWIYATSNLASGIPARFSGSGSGTDYTLTISRLEPEDFAVYYCQQWNSNPWTFGGGTKVEIKR
B21: Hu95-42wk (antibody, human IgG1, kappa, V domains shown)
VH: EVQLVQSGAEVKKPGASVKVSCKASGFTFTNYDIHWVKQAPGQRLEWIGLVYPYNGGTAYNQKFKDKATLTFDTSASTAYMELSSLRSEDTAVYYCARWGLIPGTTSYFDVWGQGTTVTVSS
VL: EIVLTQSPATLSLSPGERATLSCRASSSVSYIHWYQQKPGQSPRPWIYATSNLASGVPARFSGSGSGTSYTLTISRLEPEDFAVYYCQQWNSNPWTFGGGTKVEIKR
B22: Hu95-51yk (antibody, human IgG1, kappa, V domains shown)
VH: EVQLVQSGAEVKKPGASVKVSCRASGFTFTNYAIHWVKQAPGQRLEWMGLVYPYTGGTAYNQKFKDKVTLTFDTSASTAYMELSSLRSEDTAVYYCARWGMIPGTNSYFDVWGQGTTVTVSS
VL: EIVLTQSPATLSLSPGERATLSCRASSSVSYIHWYQQKPGQAPRPWIYATSNLASGIPARFSGSGSGTDYTLTISRLEPEDFAVYYCQQWNSNPWTFGGGTKVEIKR

What follows are binders tested against human CTGF (antigen of the Biacore assays) (human) (UniProt P29279) (assay: SPR (Biacore)).

binding, binds:
B1
B2
B3
B4
B5
B6
B7
B8
B9
B10
B11
B12
B13
B14
B15
B16
B17
B18
B19
B20
B21
B22
